Source: paper PMC9104323

Amino acid sequences for entries named in this document (tags omitted).
UniProt P04150: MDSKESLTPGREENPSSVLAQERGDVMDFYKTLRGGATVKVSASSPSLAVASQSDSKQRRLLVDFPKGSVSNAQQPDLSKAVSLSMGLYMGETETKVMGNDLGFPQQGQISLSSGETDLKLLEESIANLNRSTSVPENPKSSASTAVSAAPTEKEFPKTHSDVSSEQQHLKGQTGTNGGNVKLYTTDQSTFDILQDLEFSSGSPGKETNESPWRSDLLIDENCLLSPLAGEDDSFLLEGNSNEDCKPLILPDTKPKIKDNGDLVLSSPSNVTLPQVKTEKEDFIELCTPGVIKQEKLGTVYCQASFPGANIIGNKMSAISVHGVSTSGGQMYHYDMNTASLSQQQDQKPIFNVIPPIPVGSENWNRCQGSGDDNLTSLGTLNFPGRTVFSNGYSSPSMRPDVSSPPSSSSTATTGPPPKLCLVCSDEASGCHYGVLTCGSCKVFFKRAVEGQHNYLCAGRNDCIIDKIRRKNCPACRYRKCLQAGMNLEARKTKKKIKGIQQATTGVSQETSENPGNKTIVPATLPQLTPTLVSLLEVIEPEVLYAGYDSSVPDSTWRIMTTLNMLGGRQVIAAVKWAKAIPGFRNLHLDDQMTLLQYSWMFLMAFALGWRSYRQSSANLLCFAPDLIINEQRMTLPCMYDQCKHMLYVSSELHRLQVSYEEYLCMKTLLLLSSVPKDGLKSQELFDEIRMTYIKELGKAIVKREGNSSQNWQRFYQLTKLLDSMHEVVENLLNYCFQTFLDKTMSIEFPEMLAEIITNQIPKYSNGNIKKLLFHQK

Target: glucocorticoid receptor (human (endogenous in HEK293)) (UniProt P04150)
Assay: affinity purification with mass spectrometry; IP of endogenous GR from HEK293 whole cell lysates with the anti-GR (G-5) antibody, overnight at 4 °C, protein A/G PLUS agarose, isotype control in parallel; LC-MS/MS, label-free quantification

B1: AMP deaminase 2 (protein, UniProt Q01433 1-825)
chain: MASYPSGSGKPKAKYPFKKRASLQASTAAPEARGGLGAPPLQSARSLPGPAPCLKHFPLDLRTSMDGKCKEIAEELFTRSLAESELRSAPYEFPEESPIEQLEERRQRLERQISQDVKLEPDILLRAKQDFLKTDSDSDLQLYKEQGEGQGDRSLRERDVLEREFQRVTISGEEKCGVPFTDLLDAAKSVVRALFIREKYMALSLQSFCPTTRRYLQQLAEKPLETRTYEQGPDTPVSADAPVHPPALEQHPYEHCEPSTMPGDLGLGLRMVRGVVHVYTRREPDEHCSEVELPYPDLQEFVADVNVLMALIINGPIKSFCYRRLQYLSSKFQMHVLLNEMKELAAQKKVPHRDFYNIRKVDTHIHASSCMNQKHLLRFIKRAMKRHLEEIVHVEQGREQTLREVFESMNLTAYDLSVDTLDVHADRNTFHRFDKFNAKYNPIGESVLREIFIKTDNRVSGKYFAHIIKEVMSDLEESKYQNAELRLSIYGRSRDEWDKLARWAVMHRVHSPNVRWLVQVPRLFDVYRTKGQLANFQEMLENIFLPLFEATVHPASHPELHLFLEHVDGFDSVDDESKPENHVFNLESPLPEAWVEEDNPPYAYYLYYTFANMAMLNHLRRQRGFHTFVLRPHCGEAGPIHHLVSAFMLAENISHGLLLRKAPVLQYLYYLAQIGIAMSPLSNNSLFLSYHRNPLPEYLSRGLMVSLSTDDPLQFHFTKEPLMEEYSIATQVWKLSSCDMCELARNSVLMSGFSHKVKSHWLGPNYTKEGPEGNDIRRTNVPDIRVGYRYETLCQELALITQAVQSEMLETIPEEAGITMSPGPQ
Question: For B1, which binding is on record?
Answer: no binding

No constants are given. Whether binding was seen depends on the method and setting. Binding seen in cells or lysates may run through a third protein. These calls come from enrichment with a bait or labelling near it, and not all partners need be listed. No binding means not detected with the bait.
